Some entries share one result that the patent states for a list of compounds.
Assays:
[1] = test system: Diamondback Moth (Plutella xylostella); test: Insecticidal test for diamondback moth (cabbage leaf dip); type: in vivo; conditions: 1000 ppm; cabbage leaf immersed 30 seconds; 2nd-instar larvae; 25° C.; three days after
Experimental: Insecticidal Test for Diamondback Moth (Plutella xylostella)
(§1) A cabbage leaf pieces was immersed in a solution prepared by diluting a test compound to a predetermined concentration for 30 seconds, and then dried in air. Then, the leaf piece was placed in a polyethylene cup of 7 cm-size in which 2nd-instar larvae of […] were placed. The cup was allowed to stand in a thermostatic chamber at 25° C. Three days after, the numbers of living and dead larvae were counted. The test was carried out in two replications each containing five larvae.

[2] = test system: Common Cutworm (Spodoptera litura); test: Insecticidal test for common cutworm (cabbage leaf dip); type: in vivo; conditions: 1000 ppm; cabbage leaf immersed 30 seconds; 2nd-instar larvae; 25° C.; three days after
Experimental: Insecticidal Test for Common Cutworm (Spodoptera litura)
as §1, with “cabbage leaf piece was immersed” for “cabbage leaf pieces was immersed”, “Then, the cabbage leaf piece” for “Then, the leaf piece”

Q: `Cc1cc(C(O)(C(F)(F)F)C(F)(F)F)cc(C)c1NC(=O)c1cccc(NC(=O)OCC(Cl)(Cl)Cl)c1` [Compound No. 872, N-[2,6-dimethyl-4-(1,1,1,3,3,3-hexafluoro-2-hydroxy-2-propyl)]phenyl 3-(2,2,2-trichloroethoxycarbonylamino)benzamide] was tested. Which mortality [1] did it give?
A: ≥ 70%

Q: And the mortality [2]?
A: ≥ 70%

Q: For `Cc1cc(C(F)(C(F)(F)F)C(F)(F)C(F)(F)F)cc(C)c1NC(=O)c1cccc(NC(=O)OCC(Cl)(Cl)Cl)c1` (stereo not shown) [Compound No. 257], which mortality [1] is on record?
A: ≥ 70%

Q: And the mortality [2]?
A: ≥ 70%

Q: For `Cc1cc(C(F)(C(F)(F)F)C(F)(F)F)cc(C)c1NC(=O)c1cccc(NC(=O)OCc2cccc(C#N)c2)c1` [compound 84], which mortality [1] is on record?
A: ≥ 70%

Q: And the mortality [2]?
A: ≥ 70%

Q: Which mortality [1] does the source give for `CCCCc1cc(C(F)(C(F)(F)F)C(F)(F)F)cc(I)c1NC(=O)c1cccc(NC(=O)OCCC(F)(F)F)c1` [compound 818] here?
A: ≥ 70%

Q: And the mortality [2]?
A: ≥ 70%

Q: Which results are given for `Cc1cc(C(F)(C(F)(F)F)C(F)(F)F)cc(C(C)C)c1NC(=O)c1cccc(NC(=O)OCC(Cl)(Cl)Cl)c1` [compound 198]?
A: mortality [1]: ≥ 70%; mortality [2]: ≥ 70%

Q: Which results are given for `O=C(Nc1cccc(C(=O)Nc2ccc(C(F)(C(F)(F)F)C(F)(F)F)cc2Cl)c1)OCC(Cl)(Cl)Cl` [compound 192]?
A: mortality [1]: ≥ 70%; mortality [2]: ≥ 70%

Q: Which results are given for `CCc1cc(C(F)(C(F)(F)F)C(F)(F)F)cc(Cl)c1NC(=O)c1cccc(NC(=O)OC(C)C)c1` [compound 180]?
A: mortality [1]: ≥ 70%; mortality [2]: ≥ 70%

Q: Which mortality [1] does the source give for `O=C(Nc1cccc(C(=O)Nc2c(Cl)cc(C(F)(F)F)cc2Cl)c1)OCC(Cl)(Cl)Cl` [compound 230] here?
A: ≥ 70%

Q: And the mortality [2]?
A: ≥ 70%

Q: Which mortality [1] does the source give for `Cc1cc(C(F)(C(F)(F)F)C(F)(F)F)cc(C)c1NC(=O)c1cccc(NC(=O)OCCC#N)c1` [compound 106] here?
A: ≥ 70%

Q: What about the mortality [2] of the same compound?
A: ≥ 70%

Q: What does the source list for `CCCCc1cc(C(F)(C(F)(F)F)C(F)(F)F)cc(Cl)c1NC(=O)c1cccc(NC(=O)OCCC(F)(F)F)c1` [compound 817]?
A: mortality [1]: ≥ 70%; mortality [2]: ≥ 70%

Q: `Cc1cc(OC(C(F)(F)F)C(F)(F)F)nc(Br)c1NC(=O)c1cccc(NC(=O)OC(C)C)c1` [compound 1010] was tested. Which mortality [1] did it give?
A: ≥ 70%

Q: And the mortality [2]?
A: ≥ 70%

Q: Which results are given for `Cc1cc(C(F)(C(F)(F)F)C(F)(F)F)c2ccccc2c1NC(=O)c1cccc(NC(=O)OCC(Cl)(Cl)Cl)c1` [compound 933]?
A: mortality [1]: ≥ 70%; mortality [2]: ≥ 70%

Q: Which results are given for `O=C(Nc1cccc(C(=O)Nc2ccc(OC(C(F)(F)F)C(F)(F)F)nc2Br)c1)OCC(Cl)(Cl)Cl` [compound 948]?
A: mortality [1]: ≥ 70%; mortality [2]: ≥ 70%

Q: For `Cc1c(N)c(C(F)(C(F)(F)F)C(F)(F)F)cc(Cl)c1NC(=O)c1cccc(NC(=O)OCC(Cl)(Cl)Cl)c1` [compound 220], which mortality [1] is on record?
A: ≥ 70%

Q: What about the mortality [2] of the same compound?
A: ≥ 70%

Q: Which mortality [1] does the source give for `Cc1cc(C(F)(C(F)(F)F)C(F)(F)F)cc(C)c1NC(=O)c1cccc(NC(=O)OCc2ccco2)c1` [compound 155] here?
A: ≥ 70%

Q: What about the mortality [2] of the same compound?
A: ≥ 70%

Q: `O=C(Nc1cccc(C(=O)Nc2c(Br)cc(S(=O)(=O)C(F)(F)F)cc2Br)c1)OCCC(F)(F)F` [compound 511] was tested. Which mortality [1] did it give?
A: ≥ 70%

Q: And the mortality [2]?
A: ≥ 70%

Q: Which results are given for `Cc1cc(C(F)(F)F)cc(Cl)c1NC(=O)c1cccc(NC(=O)OCC(Cl)(Cl)Cl)c1` [compound 228]?
A: mortality [1]: ≥ 70%; mortality [2]: ≥ 70%

Q: For `Cc1cc(C(F)(C(F)(F)F)C(F)(F)F)cc(Br)c1N(C)C(=O)c1cccc(NC(=O)OCC(Cl)(Cl)Cl)c1` [compound 1955], which mortality [1] is on record?
A: ≥ 70%

Q: And the mortality [2]?
A: ≥ 70%

Q: For `Cc1c(Br)c(C(F)(C(F)(F)F)C(F)(F)F)cc(Cl)c1NC(=O)c1cccc(NC(=O)OCC(Cl)(Cl)Cl)c1` [compound 218], which mortality [1] is on record?
A: ≥ 70%

Q: And the mortality [2]?
A: ≥ 70%

Q: Which mortality [1] does the source give for `Cc1cc(C(F)(C(F)(F)F)C(F)(F)F)cc(Cl)c1NC(=O)c1cccc(NC(=O)OCC(Cl)(Cl)Cl)c1` [compound 1227] here?
A: ≥ 70%

Q: And the mortality [2]?
A: ≥ 70%

Q: `Cc1cc(C(F)(C(F)(F)F)C(F)(F)F)nc(Br)c1NC(=O)c1cccc(NC(=O)OCC(Cl)(Cl)Cl)c1` [compound 1180] was tested. Which mortality [1] did it give?
A: ≥ 70%

Q: What about the mortality [2] of the same compound?
A: ≥ 70%

Q: How did the mortality [1] turn out when `O=C(Nc1cccc(C(=O)Nc2c(Cl)cc(S(=O)(=O)C(F)(F)F)cc2Cl)c1)OCC(Cl)(Cl)Cl` [compound 301] was run?
A: ≥ 70%

Q: What about the mortality [2] of the same compound?
A: ≥ 70%

Q: With `Cc1cc(C(F)(C(F)(F)F)C(F)(F)F)cc(C)c1NC(=O)c1cccc(NC(=O)OC2CCC2)c1` [compound 78] as the compound, how does the mortality [1] read?
A: ≥ 70%

Q: And the mortality [2]?
A: ≥ 70%

Q: Which results are given for `Cc1cc(C(F)(C(F)(F)F)C(F)(F)F)cc(C)c1NC(=O)c1cccc(NC(=O)OCCBr)c1` [compound 137]?
A: mortality [1]: ≥ 70%; mortality [2]: ≥ 70%

Q: For `Cc1cc(C(F)(C(F)(F)F)C(F)(F)C(F)(F)F)cc(C)c1NC(=O)c1cccc(NC(=O)OC(C)C(F)(F)F)c1` (stereo not shown) [compound 258], which mortality [1] is on record?
A: ≥ 70%

Q: What about the mortality [2] of the same compound?
A: ≥ 70%

Q: How did the mortality [1] turn out when `Cc1cc(C(F)(C(F)(F)F)C(F)(F)F)cc(C)c1NC(=O)c1cc(NC(=O)OCC(Cl)(Cl)Cl)ccc1I` [compound 1947] was run?
A: ≥ 70%

Q: And the mortality [2]?
A: ≥ 70%

Q: `O=C(Nc1cccc(C(=O)Nc2c(Cl)cc(C(F)(F)F)cc2Br)c1)OCC(Cl)(Cl)Cl` [compound 229] was tested. Which mortality [1] did it give?
A: ≥ 70%

Q: What about the mortality [2] of the same compound?
A: ≥ 70%

Q: Which mortality [1] does the source give for `Cc1cc(C(F)(C(F)(F)F)C(F)(F)F)ccc1NC(=O)c1cc(NC(=O)OCC(Cl)(Cl)Cl)ccc1Cl` [compound 1939] here?
A: ≥ 70%

Q: What about the mortality [2] of the same compound?
A: ≥ 70%

Q: Which mortality [1] does the source give for `Cc1cc(C(F)(C(F)(F)F)C(F)(F)F)cc(Br)c1N(C)C(=O)c1cccc(NC(=O)OC(C)C)c1` [compound 1954] here?
A: ≥ 70%

Q: And the mortality [2]?
A: ≥ 70%

Q: What does the source list for `Cc1cc(C(F)(C(F)(F)F)C(F)(F)F)cc(C)c1NC(=O)c1cccc(NC(=O)OCC(Cl)(Cl)Cl)c1F` [compound 1418]?
A: mortality [1]: ≥ 70%; mortality [2]: ≥ 70%

Q: `Cc1cc(C(F)(C(F)(F)F)C(F)(F)F)cc(C)c1NC(=O)c1cccc(NC(=O)OC(C)C)c1F` [Compound No. 1389, N-(2,6-dimethyl-4-heptafluoroisopropyl)phenyl 2-fluoro-3-(isopropyloxycarbonylamino)benzamide] was tested. Which mortality [1] did it give?
A: ≥ 70%

Q: What about the mortality [2] of the same compound?
A: ≥ 70%

Q: How did the mortality [1] turn out when `Cc1cc(OC(C(F)(F)F)C(F)(F)F)nc(I)c1NC(=O)c1cccc(NC(=O)OCC(Cl)(Cl)Cl)c1` [compound 1086] was run?
A: ≥ 70%

Q: What about the mortality [2] of the same compound?
A: ≥ 70%

Q: Which results are given for `O=C(Nc1cccc(C(=O)Nc2c(Br)cc(SC(F)(F)C(F)(F)C(F)(F)F)cc2Br)c1)OCC(Cl)(Cl)Cl` [Compound No. 612, N-{2,6-dibromo-4-(heptafluoro-n-propylthio)}phenyl 3-(2,2,2-trichloroethoxycarbonylamino)benzamide]?
A: mortality [1]: ≥ 70%; mortality [2]: ≥ 70%

Q: `Cc1cc(C(F)(C(F)(F)F)C(F)(F)F)cc(C)c1NC(=O)c1cccc(NC(=O)OCCCl)n1` [compound 1969] was tested. Which mortality [1] did it give?
A: ≥ 70%

Q: What about the mortality [2] of the same compound?
A: ≥ 70%

Q: With `Cc1cc(OC(C(F)(F)F)C(F)(F)F)ncc1NC(=O)c1cccc(NC(=O)OCC(Cl)(Cl)Cl)c1` [compound 944] as the compound, how does the mortality [1] read?
A: ≥ 70%

Q: What about the mortality [2] of the same compound?
A: ≥ 70%

Q: For `CCc1cc(C(F)(C(F)(F)F)C(F)(F)F)cc(Br)c1NC(=O)c1cccc(NC(=O)OCC(Cl)(Cl)Cl)c1` [Compound No. 206], which mortality [1] is on record?
A: ≥ 70%

Q: And the mortality [2]?
A: ≥ 70%

Q: `Cc1cc(C(F)(C(F)(F)F)C(F)(F)F)cc(C)c1NC(=O)c1cccc(NC(=O)OC(C)C)n1` [compound 1967] was tested. Which mortality [1] did it give?
A: ≥ 70%

Q: What about the mortality [2] of the same compound?
A: ≥ 70%

Q: Which mortality [1] does the source give for `O=C(Nc1cccc(C(=O)Nc2c(Br)cc(SC(F)(F)C(F)(F)C(F)(F)F)cc2Br)c1)OCCC(F)(F)F` [compound 605] here?
A: ≥ 70%

Q: What about the mortality [2] of the same compound?
A: ≥ 70%

Q: Which mortality [1] does the source give for `Cc1cc(C(F)(C(F)(F)F)C(F)(F)F)cc(C)c1NC(=O)c1cccc(NC(=O)OCCCBr)c1` [compound 139] here?
A: ≥ 70%

Q: What about the mortality [2] of the same compound?
A: ≥ 70%

Q: `Cc1cc(C(F)(C(F)(F)F)C(F)(F)F)cc(C)c1NC(=O)c1cccc(NC(=O)OCCCl)c1` [Compound No. 130, N-(2,6-dimethyl-4-heptafluoroisopropyl)phenyl 3-(2-chloroethoxycarbonylamino)benzamide] was tested. Which mortality [1] did it give?
A: ≥ 70%

Q: What about the mortality [2] of the same compound?
A: ≥ 70%

Q: Which mortality [1] does the source give for `Cc1cc(C(F)(C(F)(F)F)C(F)(F)F)cc(C)c1NC(=O)c1cccc(NC(=O)OCC(Cl)Cl)c1` [compound 131] here?
A: ≥ 70%

Q: What about the mortality [2] of the same compound?
A: ≥ 70%

Q: Which results are given for `Cc1cc(C(F)(C(F)(F)F)C(F)(F)F)cc(C)c1NC(=O)c1cccc(NC(=O)OC(C)C(F)(F)F)c1` (stereo not shown) [compound 121]?
A: mortality [1]: ≥ 70%; mortality [2]: ≥ 70%

Q: `Cc1c(I)c(C(F)(C(F)(F)F)C(F)(F)F)cc(Cl)c1NC(=O)c1cccc(NC(=O)OC(C)C)c1` [compound 186] was tested. Which mortality [1] did it give?
A: ≥ 70%

Q: What about the mortality [2] of the same compound?
A: ≥ 70%

Q: What does the source list for `Cc1cc(I)cc(C)c1NC(=O)c1cccc(NC(=O)OCC(Cl)(Cl)Cl)c1` [compound 878]?
A: mortality [1]: ≥ 70%; mortality [2]: ≥ 70%

Q: Which mortality [1] does the source give for `Cc1cc(C(F)(C(F)(F)F)C(F)(F)F)cc(Br)c1NC(=O)c1cccc(NC(=O)OCC(Cl)(Cl)Cl)c1` [compound 1274] here?
A: ≥ 70%

Q: What about the mortality [2] of the same compound?
A: ≥ 70%

Q: `CCCc1cc(C(F)(C(F)(F)F)C(F)(F)F)ccc1NC(=O)c1cccc(NC(=O)OCC(Cl)(Cl)Cl)c1` [compound 190] was tested. Which mortality [1] did it give?
A: ≥ 70%

Q: And the mortality [2]?
A: ≥ 70%

Q: With `O=C(Nc1cccc(C(=O)Nc2c(Cl)cc(SC(F)(F)F)cc2Cl)c1)OCC(Cl)(Cl)Cl` [compound 300] as the compound, how does the mortality [1] read?
A: ≥ 70%

Q: And the mortality [2]?
A: ≥ 70%

— patent US9089133B2, “Insecticide for agricultural or horticultural use and method of use thereof” (MITSUI CHEMICALS, INC., priority 2003, dated 2015)
